Measurements reported in PubChem BioAssay AID504784 (Drosophila RNAi Screening Center, 2011).
The deposit covers about 17,000 reagents; shown is an unselected part of those that have a named target and a result. 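Each column is one replicate's B-score; the combined score over replicates was not deposited, so single values may mislead.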 A plus sign joins genes that one reagent is predicted to hit.

Test: 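Genome-wide knock-down for genes giving too much or too little stored lipid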 (primary screen)
System: Drosophila Kc167 embryonic cells
Reagents: long dsRNA against Drosophila genes, about 250 ng dsRNA per well
Timing: 4 days
Treatment: cells fed 400 µM oleic acid bound to BSA
Read-out: 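Cells imaged and segmented; ratio of lipid droplet area to nuclear area, log-transformed, then normalised as a B-score over the screen; higher means more stored lipid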
Scale: droplet/nuclear area B-score: higher = more stored lipid (overstorage)

gene knocked down | dsRNA | droplet/nuclear area B-score, replicate 1 | droplet/nuclear area B-score, replicate 2 | droplet/nuclear area B-score, replicate 3
aspr | DRSC20689 | 0.541 | -0.279 | –
aspr | DRSC20690 | 1.21 | 1.19 | –
CR15821 | DRSC08481 | -1.13 | 0.163 | –
CG12507 | DRSC19463 | -0.417 | -0.547 | –
CG11131 | DRSC11636 | 0.0174 | 0.964 | –
CG11131 | DRSC21736 | -1.14 | -0.0438 | –
Cow | DRSC13601 | -3.09 | -3.39 | –
Cow | DRSC14680 | 0.57 | -0.0994 | –
LSm3 | DRSC15920 | 0.0457 | -1.47 | –
CG3368 | DRSC15485 | 3.69 | 1.36 | –
Gdap2 | DRSC06789 | 1.85 | -0.018 | –
Gdap2 | DRSC06790 | 0.54 | 0.68 | –
Uhg2 + snoRNA:Me18S-G1620 + snoRNA:U14:30Ea | DRSC01100 | 1.22 | 0.952 | –
Sema5c | DRSC11279 | -0.0955 | -0.0801 | –
SiaT | DRSC04494 | -1.22 | 1.49 | –
Alp13 | DRSC15781 | -0.79 | -0.849 | –
wbl | DRSC07718 | -0.106 | 0.81 | –
Nepl20 | DRSC14878 | -1.93 | 1.31 | –
CG17724 | DRSC06687 | 1.27 | -0.00418 | –
hig | DRSC07628 | -1.39 | 0.714 | 0.991
hig | DRSC22827 | 1.09 | 1.01 | –
hig | DRSC22899 | -2.18 | 1.2 | –
mRpL24 | DRSC03113 | 4.53 | 1.76 | –
dwg | DRSC18766 | 1.04 | – | –
CG17600 | DRSC20640 | -1.87 | 0.602 | –
CG17600 | DRSC22753 | -1.2 | -0.664 | –
CG3123 | DRSC00570 | 0.716 | -1.19 | –
Dhc64C | DRSC08656 | -0.297 | 0.47 | –
LamC | DRSC07453 | 0.299 | -0.814 | –
CG13144 | DRSC02241 | -1.4 | -0.149 | –
Pif1 | DRSC00582 | -0.573 | -0.411 | –
CG13578 | DRSC04214 | 0.594 | 0.667 | –
CG16775 | DRSC10225 | -0.00504 | -0.0153 | –
Fim | DRSC20243 | 1.33 | 1.25 | –
Tudor-SN | DRSC08581 | 0.523 | -1.44 | –
Polr2A | DRSC20280 | 2.78 | 3.44 | 0.102
CG12546 + CG14452 | DRSC11709 | -1.74 | -1.33 | –
Ehbp1 | DRSC06561 | -0.242 | 0.801 | –
phr6-4 | DRSC03589 | -0.0472 | 0.695 | –
otk2 | DRSC07303 | -0.0397 | 0.00252 | –
Pvf3 | DRSC02284 | 1.06 | 0.322 | –
Pvf3 | DRSC02285 | -0.72 | -3.18 | –
Pvf3 | DRSC02286 | -1.51 | -0.005 | –
Pvf3 | DRSC02751 | 0.982 | 0.219 | –
fliI | DRSC20578 | -1.43 | 0.00321 | –
CG18870 | DRSC04313 | 1.55 | 0.643 | –
loopin-1 | DRSC06888 | 0.813 | 0.662 | –
Klp31E | DRSC03354 | 0.127 | -1.07 | –
CG14488 | DRSC06460 | -1.35 | 0.774 | –
CG13471 | DRSC10015 | 0.792 | 0.054 | –

A portion taken from the entries so far, for reference:
gene knocked down | dsRNA | droplet/nuclear area B-score, replicate 1 | droplet/nuclear area B-score, replicate 2 | droplet/nuclear area B-score, replicate 3
Cow | DRSC14680 | 0.57 | -0.0994 | –
LSm3 | DRSC15920 | 0.0457 | -1.47 | –
CG3368 | DRSC15485 | 3.69 | 1.36 | –
Gdap2 | DRSC06789 | 1.85 | -0.018 | –
Gdap2 | DRSC06790 | 0.54 | 0.68 | –
Uhg2 + snoRNA:Me18S-G1620 + snoRNA:U14:30Ea | DRSC01100 | 1.22 | 0.952 | –
Sema5c | DRSC11279 | -0.0955 | -0.0801 | –
SiaT | DRSC04494 | -1.22 | 1.49 | –
Alp13 | DRSC15781 | -0.79 | -0.849 | –

Additional reagents follow.
gene knocked down | dsRNA | droplet/nuclear area B-score, replicate 1 | droplet/nuclear area B-score, replicate 2 | droplet/nuclear area B-score, replicate 3
TwdlS | DRSC14737 | -1.94 | 0.274 | –
CG3556 | DRSC18309 | -1.01 | – | –
CG17272 | DRSC15211 | 0.615 | – | –
vig | DRSC03630 | 0.266 | 0.815 | -0.198
vig | DRSC03631 | 0.0018 | -0.96 | –
vig | DRSC21672 | -1.42 | -2.11 | –
hpRNA:CR18854 + IP3K1 | DRSC02218 | -0.0492 | 0.0643 | –
krz | DRSC16979 | -0.211 | -1.17 | –
REG | DRSC20273 | 0.0824 | -0.349 | -0.312
Cf2 | DRSC00744 | -1.38 | -0.00446 | –
Cf2 | DRSC23015 | -0.185 | 1.11 | –
Acp62F | DRSC08136 | -1.35 | 3.8 | –
CG4960 | DRSC15684 | 0.0834 | 2.65 | –
Nop17l | DRSC06556 | -3.38 | -0.138 | –
CG13616 | DRSC14619 | 1.71 | 1.04 | –
Crys | DRSC03294 | -0.834 | -0.0418 | –
CG31855 | DRSC02968 | -0.0373 | 2.72 | –
CG5250 | DRSC15752 | -0.109 | -0.64 | –
Mst87F | DRSC16747 | -0.13 | -0.272 | –
CG13438 | DRSC06398 | 0.122 | -0.4 | –
CG31643 | DRSC00906 | -0.243 | -1.33 | –
Pcyt2 | DRSC08531 | -2.74 | -1.53 | –
NijC | DRSC14851 | -1.02 | -0.171 | –
ZnT41F | DRSC04850 | -0.469 | -0.056 | –
FeCH | DRSC16948 | 0.406 | 1.34 | –
betaTub85D | DRSC16910 | -1.05 | -0.0157 | –
raptor | DRSC18359 | 0.0377 | -0.00954 | –
CG17777 | DRSC18137 | -2.06 | 0.125 | –
CG8219 | DRSC10971 | -0.107 | -0.548 | –
Syx17 | DRSC08591 | -0.00339 | -1.07 | –
CG6290 | DRSC19979 | 0.67 | 0.0552 | –
CG4021 | DRSC04439 | 1.41 | 0.165 | –
CG4570 | DRSC15602 | -0.0184 | 1.49 | –
